Measured values reported in patent US7087248B2, “Pharmaceutical component based on human parathyroid hormone and a pharmaceutical composition for intranasal administration comprising the component” (Daiichi Asubio Pharma Co., Ltd., priority 2000, dated 2006).
Entries after “also recorded” stand apart in the source; their conditions may differ.

Tested on: nasal cavity
Assay: Sensory test (1): odor and irritation evoked by nasal spraying
Details: four healthy normal adult males
Description: As the control, physiological saline was used.
Then, aqueous solutions of various organic acids were prepared, in order to identify the factors responsible for the odor and irritation the preparation evokes when it is applied in the nasal cavity. The organic acid employed included acetic acid, citric acid and tartaric acid; oxalic acid; malic acid; phthalic acid; ascorbic acid; adipic acid; and glycolic acid.
Prepared were 0.1 v/v %, 0.2 v/v %, 0.3 v/v % and 0.6 v/v % aqueous solutions of acetic acid, and 0.6 w/v % aqueous solutions of citric acid, tartaric acid, oxalic acid, malic acid, phthalic acid, ascorbic acid, adipic acid, and glycolic acid. The solution was sprayed into the nasal cavity; and the odor and irritation were assessed in the same manner as above (testers consisting of four healthy normal adult males).
In the same manner as above, the test solution was applied in the nasal cavity, and the odor and irritation evoked thereby were assessed (testers consisting of 12 healthy normal adult males).

[1] = 0.6 w/v % aqueous solution sprayed into the nasal cavity

## O=C(O)c1ccccc1C(=O)O [Phthalic acid]
[1]
  Odor: No odor present

## O=C(O)CCCCC(=O)O [Adipic acid]
[1]
  Odor: No odor present

## O=C(O)CC(O)(CC(=O)O)C(=O)O [Citric acid]
[1]
  Odor: No odor present

## O=C(O)CC(O)C(=O)O (stereo not drawn) [Malic acid]
[1]
  Odor: No odor present

## CC(=O)O [Acetic acid]
0.1 v/v % aqueous solution sprayed into the nasal cavity
  Odor: Scarcely any odor present
0.2 v/v % aqueous solution sprayed into the nasal cavity
  Odor: Slight acidic odor present
0.3 v/v % aqueous solution sprayed into the nasal cavity
  Odor: strong acidic odor; also recorded: Acidic odor present
0.6 v/v % aqueous solution sprayed into the nasal cavity
  Odor: strong acidic odor; also recorded: Acidic odor present

## O=C(O)C(O)C(O)C(=O)O (stereo not drawn) [Tartaric acid]
[1]
  Odor: No odor present

## O=C1O[C@H]([C@@H](O)CO)C(O)=C1O [Ascorbic acid]
[1]
  Odor: No odor present

## O=C(O)CO [Glycolic acid]
[1]
  Odor: No odor present

## O=C(O)C(=O)O [Oxalic acid]
[1]
  Odor: No odor present
